Data from US20040157227A1, “Reproductive cancer diagnosis and therapy” (priority 2001, published 2004).

Legend:
Set-up in all cases: species or system human; key: absence of staining=−; mild staining=+; moderate staining=++; strong staining=+++; very strong staining=++++; strongest staining=+++++
Normal breast = experiment: Immunohistochemical staining of normal breast tissue
Procedure: (§1) Immunohistochemistry was performed using cultured cell lines and both normal and cancer histological sections (breast, prostate, endometrium, placenta, ovary). Immunohistochemistry was performed using our antibodies to GHSR1a, 1b, ghrelin and the exon 3-deleted form of proghrelin.
(§2) Immunohistochemistry was performed on human sections using an Envision Plus DAB anti-rabbit immunostaining kit (Dako, USA) according to the manufacturer's instructions. Negative controls included the substitution of immune serum with 0.01M PBS 1% BSA and also preabsorption of the antibody with 1 mg/ml peptide overnight at 4° C. Positive controls consisted of pituitary sections for GHSR 1a and 1b (Peterborough) and human stomach for ghrelin (Peterborough). Sections were counterstained with haematoxylin.

Breast cancer = experiment: Immunohistochemical staining of breast cancer tissue
Procedure: as §1, §2

Normal prostate = experiment: Immunohistochemical staining of normal prostate tissue
Procedure: as §1, §2

Prostate cancer = experiment: Immunohistochemical staining of prostate cancer tissue
Procedure: as §1, §2

Molecule | immunohistochemical staining, relative level of expression (Normal breast) | immunohistochemical staining, relative level of expression (Breast cancer) | immunohistochemical staining, relative level of expression (Normal prostate) | immunohistochemical staining, relative level of expression (Prostate cancer)
ghrelin (endogenous ligand for the GHS-R, a 28 amino acid peptide) peptide: GSSFLSPEHQRVQQRKESKKPPAKLQPRALAGWLRPEDGGQAEGAEDELEVRFNAPFDVGIKLSGVQYQQHSQALGKFLQDILWEEAKEAPADK | + | +++ | + | ++++
Exon 3-deleted ghrelin (protein) GSSFLSPEHQRVQQRKESKKPPAKLQPRALAGWLRPEDGGQAEGAEDELEVRRPQPTSDRPQALLTSL | ++ | +++++ | + | +++++
